The supplement of paper PMC10849652
The list shows a part of the results.

Chains of the proteins cited; added tags and fusions are not shown. Lines headed by an entry give the natural chain unless they say otherwise; changes in a name come on top.
UniProt Q969Q5: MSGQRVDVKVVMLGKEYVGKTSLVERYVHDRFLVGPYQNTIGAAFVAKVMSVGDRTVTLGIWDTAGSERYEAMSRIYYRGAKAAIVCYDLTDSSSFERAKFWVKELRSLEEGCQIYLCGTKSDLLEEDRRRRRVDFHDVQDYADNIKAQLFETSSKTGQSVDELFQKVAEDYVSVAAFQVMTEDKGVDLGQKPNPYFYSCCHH
UniProt P20338: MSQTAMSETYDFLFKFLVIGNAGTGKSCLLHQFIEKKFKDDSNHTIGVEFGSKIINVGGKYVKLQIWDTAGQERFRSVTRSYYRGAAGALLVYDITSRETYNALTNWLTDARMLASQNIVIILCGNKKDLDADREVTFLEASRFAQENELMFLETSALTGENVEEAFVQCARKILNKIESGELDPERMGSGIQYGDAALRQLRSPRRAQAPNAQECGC
UniProt Q8WWW0: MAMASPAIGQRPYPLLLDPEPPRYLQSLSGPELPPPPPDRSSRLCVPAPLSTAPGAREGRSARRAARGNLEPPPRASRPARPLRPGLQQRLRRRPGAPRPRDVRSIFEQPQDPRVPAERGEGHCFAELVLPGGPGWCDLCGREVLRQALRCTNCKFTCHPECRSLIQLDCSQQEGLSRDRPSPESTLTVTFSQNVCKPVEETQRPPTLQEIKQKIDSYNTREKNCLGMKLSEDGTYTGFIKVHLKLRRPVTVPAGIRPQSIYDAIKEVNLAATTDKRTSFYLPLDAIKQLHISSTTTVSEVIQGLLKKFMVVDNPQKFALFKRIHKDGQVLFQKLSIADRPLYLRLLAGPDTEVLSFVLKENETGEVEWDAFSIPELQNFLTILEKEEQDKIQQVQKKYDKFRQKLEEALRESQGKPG
UniProt Q96QF0: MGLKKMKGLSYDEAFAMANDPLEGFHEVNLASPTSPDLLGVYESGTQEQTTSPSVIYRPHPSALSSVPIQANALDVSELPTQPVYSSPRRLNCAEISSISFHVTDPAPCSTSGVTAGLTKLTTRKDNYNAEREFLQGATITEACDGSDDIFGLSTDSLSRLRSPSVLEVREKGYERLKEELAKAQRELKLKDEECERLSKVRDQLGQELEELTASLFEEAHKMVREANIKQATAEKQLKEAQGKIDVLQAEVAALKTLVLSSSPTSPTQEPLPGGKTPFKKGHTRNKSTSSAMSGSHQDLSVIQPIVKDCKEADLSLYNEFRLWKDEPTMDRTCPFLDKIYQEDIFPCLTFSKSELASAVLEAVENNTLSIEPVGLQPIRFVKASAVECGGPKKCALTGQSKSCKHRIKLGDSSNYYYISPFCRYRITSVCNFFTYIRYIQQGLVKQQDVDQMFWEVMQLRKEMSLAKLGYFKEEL
UniProt Q7Z6M1: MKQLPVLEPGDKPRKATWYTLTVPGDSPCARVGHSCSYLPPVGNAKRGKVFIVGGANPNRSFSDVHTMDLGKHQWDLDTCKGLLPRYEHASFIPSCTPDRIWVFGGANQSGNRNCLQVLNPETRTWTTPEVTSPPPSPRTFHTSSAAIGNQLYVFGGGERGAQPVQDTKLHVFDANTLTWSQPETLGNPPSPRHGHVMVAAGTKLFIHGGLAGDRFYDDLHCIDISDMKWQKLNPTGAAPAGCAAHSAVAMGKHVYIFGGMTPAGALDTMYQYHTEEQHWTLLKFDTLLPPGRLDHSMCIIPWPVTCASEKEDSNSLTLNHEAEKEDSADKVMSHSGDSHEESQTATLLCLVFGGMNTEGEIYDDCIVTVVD
UniProt Q9H2T7: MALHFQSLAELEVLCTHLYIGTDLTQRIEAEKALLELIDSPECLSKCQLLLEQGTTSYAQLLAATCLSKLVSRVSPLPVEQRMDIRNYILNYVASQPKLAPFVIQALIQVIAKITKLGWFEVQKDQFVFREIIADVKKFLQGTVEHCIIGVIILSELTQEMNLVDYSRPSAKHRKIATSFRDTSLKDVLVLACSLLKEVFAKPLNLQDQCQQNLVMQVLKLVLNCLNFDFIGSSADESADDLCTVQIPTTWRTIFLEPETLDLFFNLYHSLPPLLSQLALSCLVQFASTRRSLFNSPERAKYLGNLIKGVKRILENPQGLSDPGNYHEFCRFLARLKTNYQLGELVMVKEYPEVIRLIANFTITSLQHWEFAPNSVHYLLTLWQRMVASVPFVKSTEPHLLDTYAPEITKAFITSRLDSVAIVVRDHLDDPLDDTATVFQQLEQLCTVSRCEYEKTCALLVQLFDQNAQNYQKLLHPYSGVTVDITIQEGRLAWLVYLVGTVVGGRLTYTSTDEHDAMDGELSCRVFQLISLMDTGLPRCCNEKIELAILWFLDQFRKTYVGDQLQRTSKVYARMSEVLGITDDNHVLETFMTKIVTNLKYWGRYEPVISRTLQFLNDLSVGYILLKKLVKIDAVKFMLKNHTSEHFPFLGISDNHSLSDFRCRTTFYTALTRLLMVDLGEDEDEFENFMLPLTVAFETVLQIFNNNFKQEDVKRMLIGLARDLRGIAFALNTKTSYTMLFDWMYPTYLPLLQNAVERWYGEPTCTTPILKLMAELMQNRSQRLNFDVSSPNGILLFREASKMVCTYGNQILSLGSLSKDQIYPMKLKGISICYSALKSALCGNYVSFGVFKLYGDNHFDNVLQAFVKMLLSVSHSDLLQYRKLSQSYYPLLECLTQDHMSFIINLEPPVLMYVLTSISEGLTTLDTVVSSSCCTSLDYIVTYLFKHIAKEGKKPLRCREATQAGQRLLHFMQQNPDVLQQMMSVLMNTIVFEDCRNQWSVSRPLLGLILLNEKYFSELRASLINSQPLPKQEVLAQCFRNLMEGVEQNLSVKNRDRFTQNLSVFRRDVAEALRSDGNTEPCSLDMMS
UniProt P61020: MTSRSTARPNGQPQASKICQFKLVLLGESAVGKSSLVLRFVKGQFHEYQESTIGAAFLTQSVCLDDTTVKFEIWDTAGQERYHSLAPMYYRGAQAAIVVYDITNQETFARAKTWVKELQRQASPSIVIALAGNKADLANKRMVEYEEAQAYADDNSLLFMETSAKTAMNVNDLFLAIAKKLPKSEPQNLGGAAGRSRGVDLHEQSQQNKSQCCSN
UniProt Q15907: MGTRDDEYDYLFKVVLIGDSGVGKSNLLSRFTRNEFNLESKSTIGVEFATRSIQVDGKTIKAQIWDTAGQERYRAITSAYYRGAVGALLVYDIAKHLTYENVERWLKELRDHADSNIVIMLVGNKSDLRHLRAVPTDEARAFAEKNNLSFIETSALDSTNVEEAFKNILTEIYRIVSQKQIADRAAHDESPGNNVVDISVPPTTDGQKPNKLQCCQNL
UniProt Q9UL26: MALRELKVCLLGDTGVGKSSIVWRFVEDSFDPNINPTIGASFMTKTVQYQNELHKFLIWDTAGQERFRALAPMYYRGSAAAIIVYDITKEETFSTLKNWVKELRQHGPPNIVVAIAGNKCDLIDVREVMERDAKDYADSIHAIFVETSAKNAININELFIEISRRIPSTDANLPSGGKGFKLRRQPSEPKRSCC
UniProt P61225: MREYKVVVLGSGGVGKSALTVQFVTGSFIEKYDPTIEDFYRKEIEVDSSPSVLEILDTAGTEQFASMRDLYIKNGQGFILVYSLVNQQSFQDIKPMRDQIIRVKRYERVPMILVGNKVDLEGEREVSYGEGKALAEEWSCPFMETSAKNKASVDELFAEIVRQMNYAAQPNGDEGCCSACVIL
UniProt Q9ULC3: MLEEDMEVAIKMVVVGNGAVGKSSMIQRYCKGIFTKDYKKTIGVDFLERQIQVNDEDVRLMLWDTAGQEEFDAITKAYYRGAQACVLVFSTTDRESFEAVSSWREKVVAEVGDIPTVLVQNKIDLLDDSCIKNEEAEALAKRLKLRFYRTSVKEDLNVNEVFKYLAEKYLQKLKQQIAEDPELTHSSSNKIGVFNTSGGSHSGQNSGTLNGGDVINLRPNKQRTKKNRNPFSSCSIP
UniProt P51149, whole entry, looked up: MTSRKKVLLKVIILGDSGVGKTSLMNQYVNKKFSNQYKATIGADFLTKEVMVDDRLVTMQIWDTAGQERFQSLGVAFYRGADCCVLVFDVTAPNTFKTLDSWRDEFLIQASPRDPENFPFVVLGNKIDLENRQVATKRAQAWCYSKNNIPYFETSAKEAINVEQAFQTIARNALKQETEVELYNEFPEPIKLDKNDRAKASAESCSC
UniProt Q8WUD1: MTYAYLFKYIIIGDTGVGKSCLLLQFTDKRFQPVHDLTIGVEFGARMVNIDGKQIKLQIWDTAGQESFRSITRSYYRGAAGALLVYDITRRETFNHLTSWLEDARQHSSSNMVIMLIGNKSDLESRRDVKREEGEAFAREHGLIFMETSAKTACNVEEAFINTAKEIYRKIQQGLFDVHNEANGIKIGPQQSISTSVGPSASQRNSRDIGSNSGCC
UniProt Q9UL25: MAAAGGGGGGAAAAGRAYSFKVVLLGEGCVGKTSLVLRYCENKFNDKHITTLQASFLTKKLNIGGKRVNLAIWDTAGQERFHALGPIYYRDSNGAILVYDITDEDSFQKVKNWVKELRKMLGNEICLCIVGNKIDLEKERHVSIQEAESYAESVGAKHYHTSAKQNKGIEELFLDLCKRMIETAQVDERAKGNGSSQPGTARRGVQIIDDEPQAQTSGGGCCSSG
UniProt P46060: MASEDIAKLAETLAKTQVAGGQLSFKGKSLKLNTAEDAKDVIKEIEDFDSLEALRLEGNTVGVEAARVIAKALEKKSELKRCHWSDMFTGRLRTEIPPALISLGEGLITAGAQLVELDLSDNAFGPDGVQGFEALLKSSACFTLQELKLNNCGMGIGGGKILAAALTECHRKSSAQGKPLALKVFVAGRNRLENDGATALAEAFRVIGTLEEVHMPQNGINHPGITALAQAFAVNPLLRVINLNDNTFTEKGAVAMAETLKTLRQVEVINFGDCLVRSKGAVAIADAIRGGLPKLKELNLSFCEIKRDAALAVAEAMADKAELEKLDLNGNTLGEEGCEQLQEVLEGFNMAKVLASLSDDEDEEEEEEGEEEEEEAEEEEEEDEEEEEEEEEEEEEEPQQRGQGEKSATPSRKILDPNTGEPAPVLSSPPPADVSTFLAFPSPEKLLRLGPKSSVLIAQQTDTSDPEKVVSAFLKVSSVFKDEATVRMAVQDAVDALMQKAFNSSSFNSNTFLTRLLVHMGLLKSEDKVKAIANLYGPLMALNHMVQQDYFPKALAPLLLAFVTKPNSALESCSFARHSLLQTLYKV

Experiments:
Experiment in all cases: log2 fold change, soluble protein after heating vs DMSO (PISA); higher = thermal stabilisation; K562 cells, 10 uM, 30 min; active = over 0.2 and 3.5 SD of the protein, either way, in both replicates (recomputed)
saracatinib = compound: CN1CCN(CCOc2cc(OC3CCOCC3)c3c(Nc4c(Cl)ccc5c4OCO5)ncnc3c2)CC1 [saracatinib]
Outline: (§1)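 K562 cells at 2×10^6 cells/mL were treated for 30 min with 10 μM compound, and aliquots were heated for 3 min over 48°C-58°C before pooling. Extraction used PBS with 0.5% NP-40 at 4°C, and soluble protein was the supernatant after 21,000xg for 90 min, measured by TMTpro 16plex LC-MS/MS with channel sums equalised. Thermal stability values, relative to control samples and from duplicates, are log2 fold changes.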

sotrastaurin = compound: CN1CCN(c2nc(C3=C(c4c[nH]c5ccccc45)C(=O)NC3=O)c3ccccc3n2)CC1 [sotrastaurin]
Outline: as §1

alvocidib = compound: CN1CC[C@H](c2c(O)cc(O)c3c(=O)cc(-c4ccccc4Cl)oc23)[C@H](O)C1 [alvocidib]
Outline: as §1

Tubastatin A = compound: CN1CCc2c(c3ccccc3n2Cc2ccc(C(=O)NO)cc2)C1 [Tubastatin A]
Outline: as §1

[1] = compound: CNC(=O)C1=CC=CC=C1NC2=NC(=NC=C2Cl)NC3=C(C=C(C=C3)N4CCOCC4)OC
Outline: as §1

defactinib = compound: CNC(=O)c1ccc(Nc2ncc(C(F)(F)F)c(NCc3nccnc3N(C)S(C)(=O)=O)n2)cc1 [defactinib]
Outline: as §1

rucaparib = compound: CNCc1ccc(-c2[nH]c3cc(F)cc4c3c2CCNC4=O)cc1 [rucaparib]
Outline: as §1

[2] = compound: CNc1nc(-c2ccc3c(N)n[nH]c3c2)cc(N2C[C@@H](C(=O)NC3CCCCC3)CC[C@H]2C)n1
Outline: as §1

encorafenib = compound: COC(=O)N[C@@H](C)CNc1nccc(-c2cn(C(C)C)nc2-c2cc(Cl)cc(NS(C)(=O)=O)c2F)n1 [encorafenib]
Outline: as §1

[3] = compound: COC(=O)[C@H](CCSC)NC(=O)C1=C(C=C(C=C1)NC[C@H](CS)N)C2=CC=CC=C2
Outline: as §1

[4] = compound: COC1=CC=C(C=C1)CN2C=CC3=C2C=C(C=C3)C(=O)NO
Outline: as §1

filanesib = compound: CON(C)C(=O)N1N=C(c2cc(F)ccc2F)S[C@@]1(CCCN)c1ccccc1 [filanesib]
Outline: as §1

zotarolimus = compound: CO[C@H]1C[C@@H]2CC[C@@H](C)[C@@](O)(O2)C(=O)C(=O)N2CCCC[C@H]2C(=O)O[C@H]([C@H](C)C[C@@H]2CC[C@H](n3cnnn3)[C@H](OC)C2)CC(=O)[C@H](C)/C=C(\C)[C@@H](O)[C@@H](OC)C(=O)[C@H](C)C[C@H](C)/C=C/C=C/C=C/1C [zotarolimus]
Outline: as §1

idasanutlin = compound: COc1cc(C(=O)O)ccc1NC(=O)[C@@H]1N[C@@H](CC(C)(C)C)[C@](C#N)(c2ccc(Cl)cc2F)[C@H]1c1cccc(Cl)c1F [idasanutlin]
Outline: as §1

alisertib = compound: COc1cc(Nc2ncc3c(n2)-c2ccc(Cl)cc2C(c2c(F)cccc2OC)=NC3)ccc1C(=O)O [alisertib]
Outline: as §1

[5] = compound: COc1cc2nc(-c3cc(F)ccc3O)nc(N[C@@H]3CNC[C@H]3C(C)(C)O)c2cc1OC
Outline: as §1

gefitinib = compound: COc1cc2ncnc(Nc3ccc(F)c(Cl)c3)c2cc1OCCCN1CCOCC1 [gefitinib]
Outline: as §1

[6] = compound: COc1cccc2cc(-c3nc([C@H]4CC[C@H](C(=O)O)CC4)n4ncnc(N)c34)[nH]c12
Outline: as §1

lapatinib = compound: CS(=O)(=O)CCNCc1ccc(-c2ccc3ncnc(Nc4ccc(OCc5cccc(F)c5)c(Cl)c4)c3c2)o1 [lapatinib]
Outline: as §1

pictilisib = compound: CS(=O)(=O)N1CCN(Cc2cc3nc(-c4cccc5[nH]ncc45)nc(N4CCOCC4)c3s2)CC1 [pictilisib]
Outline: as §1

Measured: log2 fold change

RAB24 (UniProt Q969Q5)
inactive: saracatinib 0.063 | sotrastaurin 0.001 | alvocidib 0.054 | Tubastatin A -0.011 | [1] -0.039 | defactinib 0.015 | rucaparib -0.103 | [2] -0.032 | encorafenib 0.032 | [3] -0.002 | [4] 0.09 | filanesib -0.095 | zotarolimus -0.002 | idasanutlin -0.037 | alisertib -0.036 | [5] -0.063 | gefitinib -0.027 | [6] 0.013 | lapatinib 0.002 | pictilisib 0.006

RAB4A (UniProt P20338)
inactive: saracatinib 0.068 | sotrastaurin 0.038 | alvocidib -0.014 | Tubastatin A -0.029 | [1] 0.004 | defactinib -0.034 | rucaparib 0.027 | [2] -0.016 | encorafenib -0.022 | [3] -0.003 | [4] -0.058 | filanesib -0.033 | zotarolimus -0.033 | idasanutlin -0.02 | alisertib -0.007 | [5] 0.07 | gefitinib -0.014 | [6] 0.017 | lapatinib -0.051 | pictilisib 0.077

RASSF5 (UniProt Q8WWW0)
inactive: saracatinib -0.075 | sotrastaurin -0.041 | alvocidib 0.035 | Tubastatin A 0.014 | [1] 0.042 | defactinib 0 | rucaparib 0.125 | [2] -0.022 | encorafenib -0.002 | [3] 0.064 | [4] -0.085 | filanesib 0.115 | zotarolimus 0.112 | idasanutlin 0.019 | alisertib -0.103 | [5] 0.133 | gefitinib -0.054 | [6] 0.013 | lapatinib -0.091 | pictilisib 0.003

RAB3IP (UniProt Q96QF0)
inactive: saracatinib -0.017 | sotrastaurin 0.006 | alvocidib -0.133 | Tubastatin A -0.036 | [1] 0.009 | defactinib 0.132 | rucaparib -0.032 | [2] 0.013 | encorafenib -0.006 | [3] 0.071 | [4] 0 | filanesib 0.021 | zotarolimus 0.128 | idasanutlin 0.073 | alisertib -0.041 | [5] -0.145 | gefitinib 0.033 | [6] -0.131 | lapatinib 0.069 | pictilisib 0.067

RABEPK (UniProt Q7Z6M1)
inactive: saracatinib 0.048 | sotrastaurin 0.009 | alvocidib 0.004 | Tubastatin A 0.007 | [1] -0.107 | defactinib -0.032 | rucaparib -0.013 | [2] -0.054 | encorafenib -0.023 | [3] 0.009 | [4] -0.015 | filanesib -0.027 | zotarolimus 0.005 | idasanutlin -0.044 | alisertib 0.01 | [5] 0.016 | gefitinib 0.037 | [6] 0.029 | lapatinib -0.001 | pictilisib 0.011

RANBP17 (UniProt Q9H2T7)
inactive: saracatinib -0.064 | sotrastaurin -0.092 | alvocidib -0.211 | Tubastatin A 0.011 | [1] -0.032 | defactinib -0.042 | rucaparib 0.02 | [2] 0.026 | encorafenib 0.042 | [3] 0.086 | [4] 0.052 | filanesib -0.022 | zotarolimus 0.139 | idasanutlin -0.307 | alisertib -0.412 | [5] 0.288 | gefitinib -0.002 | [6] 0.038 | lapatinib -0.063 | pictilisib -0.097

RAB5B (UniProt P61020)
inactive: saracatinib 0.072 | sotrastaurin 0.025 | alvocidib -0.007 | Tubastatin A 0.027 | [1] -0.087 | defactinib -0.03 | rucaparib -0.037 | [2] -0.003 | encorafenib -0.049 | [3] -0.1 | [4] 0.044 | filanesib -0.025 | zotarolimus 0.035 | idasanutlin -0.038 | alisertib -0.093 | [5] -0.035 | gefitinib -0.001 | [6] 0.061 | lapatinib 0.026 | pictilisib -0.144

RAB11B (UniProt Q15907)
inactive: saracatinib 0.049 | sotrastaurin 0.07 | alvocidib 0.081 | Tubastatin A -0.052 | [1] -0.006 | defactinib 0.01 | rucaparib -0.017 | [2] -0.05 | encorafenib -0.01 | [3] 0.084 | [4] -0.035 | filanesib 0.019 | zotarolimus -0.058 | idasanutlin 0.025 | alisertib -0.075 | [5] 0.048 | gefitinib 0.045 | [6] 0.065 | lapatinib -0.008 | pictilisib -0.01

RAB22A (UniProt Q9UL26)
inactive: saracatinib 0.032 | sotrastaurin 0.022 | alvocidib 0.012 | Tubastatin A -0.004 | [1] -0.052 | defactinib 0.028 | rucaparib 0 | [2] -0.047 | encorafenib -0.053 | [3] -0.002 | [4] -0.007 | filanesib -0.041 | zotarolimus 0.013 | idasanutlin -0.048 | alisertib -0.015 | [5] 0.078 | gefitinib 0.032 | [6] 0.075 | lapatinib -0.002 | pictilisib 0.028

RAP2B (UniProt P61225)
inactive: saracatinib 0.068 | sotrastaurin -0.037 | alvocidib 0.012 | Tubastatin A 0.015 | [1] -0.045 | defactinib -0.051 | rucaparib 0.014 | [2] -0.018 | encorafenib -0.044 | [3] -0.002 | [4] 0.049 | filanesib -0.055 | zotarolimus -0.026 | idasanutlin -0.044 | alisertib -0.036 | [5] 0.1 | gefitinib 0.059 | [6] 0.042 | lapatinib 0.062 | pictilisib 0.059

RAB23 (UniProt Q9ULC3)
inactive: saracatinib 0.011 | sotrastaurin 0.05 | alvocidib -0.009 | Tubastatin A -0.084 | [1] -0.055 | defactinib -0.015 | rucaparib -0.008 | [2] 0.027 | encorafenib -0.007 | [3] 0 | [4] -0.022 | filanesib -0.015 | zotarolimus 0.031 | idasanutlin -0.02 | alisertib 0.137 | [5] 0.084 | gefitinib 0.038 | [6] 0.056 | lapatinib -0.025 | pictilisib 0.028

RAB7A (UniProt P51149)
inactive: saracatinib 0.072 | sotrastaurin 0.038 | alvocidib 0.002 | Tubastatin A -0.024 | [1] 0.083 | defactinib 0.01 | rucaparib -0.021 | [2] -0.006 | encorafenib -0.037 | [3] 0.037 | [4] -0.017 | filanesib -0.055 | zotarolimus -0.055 | idasanutlin -0.009 | alisertib -0.047 | [5] 0.015 | gefitinib 0.014 | [6] 0.038 | lapatinib -0.005 | pictilisib -0.001

Two successive records already listed, quoted:
RABEPK (UniProt Q7Z6M1)
inactive: saracatinib 0.048 | sotrastaurin 0.009 | alvocidib 0.004 | Tubastatin A 0.007 | [1] -0.107 | defactinib -0.032 | rucaparib -0.013 | [2] -0.054 | encorafenib -0.023 | [3] 0.009 | [4] -0.015 | filanesib -0.027 | zotarolimus 0.005 | idasanutlin -0.044 | alisertib 0.01 | [5] 0.016 | gefitinib 0.037 | [6] 0.029 | lapatinib -0.001 | pictilisib 0.011

RANBP17 (UniProt Q9H2T7)
inactive: saracatinib -0.064 | sotrastaurin -0.092 | alvocidib -0.211 | Tubastatin A 0.011 | [1] -0.032 | defactinib -0.042 | rucaparib 0.02 | [2] 0.026 | encorafenib 0.042 | [3] 0.086 | [4] 0.052 | filanesib -0.022 | zotarolimus 0.139 | idasanutlin -0.307 | alisertib -0.412 | [5] 0.288 | gefitinib -0.002 | [6] 0.038 | lapatinib -0.063 | pictilisib -0.097

(cont.)

RAB2B (UniProt Q8WUD1)
inactive: saracatinib 0.074 | sotrastaurin 0.015 | alvocidib -0.02 | Tubastatin A -0.023 | [1] 0.029 | defactinib 0.012 | rucaparib -0.055 | [2] 0.003 | encorafenib 0.004 | [3] 0.024 | [4] 0.107 | filanesib -0.094 | zotarolimus 0.005 | idasanutlin -0.021 | alisertib -0.006 | [5] -0.049 | gefitinib 0.004 | [6] 0.024 | lapatinib 0.026 | pictilisib -0.086

RAB21 (UniProt Q9UL25)
inactive: saracatinib 0 | sotrastaurin 0.062 | alvocidib -0.032 | Tubastatin A -0.027 | [1] -0.011 | defactinib -0.01 | rucaparib -0.023 | [2] -0.024 | encorafenib -0.012 | [3] 0.003 | [4] -0.052 | filanesib -0.045 | zotarolimus 0.014 | idasanutlin -0.042 | alisertib -0.051 | [5] 0.031 | gefitinib -0.005 | [6] 0.066 | lapatinib -0.016 | pictilisib 0.06

RANGAP1 (UniProt P46060)
inactive: saracatinib -0.016 | sotrastaurin -0.101 | alvocidib -0.042 | Tubastatin A -0.002 | [1] 0.011 | defactinib -0.069 | rucaparib 0.064 | [2] -0.003 | encorafenib 0.112 | [3] -0.031 | [4] 0.028 | filanesib -0.012 | zotarolimus 0.035 | idasanutlin -0.052 | alisertib -0.071 | [5] 0.093 | gefitinib -0.017 | [6] -0.045 | lapatinib 0 | pictilisib -0.019
